Measurements reported in PubChem BioAssay AID1508588 (Peter MacCallum Cancer Centre, 2020).
This is one part, drawn at random, of about 18,000 reagents. 790 of all reagents (4.4%) count as active. 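Calls rest on a combination of fold-change classes in drug and vehicle arms, not all shown here.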 Reagent sequences are not shown.

Assay: 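Which gene losses make BRAF-mutant melanoma cells more responsive to vemurafenib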 (primary screen)
Cells: human WM266.4 melanoma cells (BRAF V600 mutant)
Knock-down reagent: siRNA pool against human genes, 40 nM
Time to read-out: 96 h from transfection to read-out
Conditions: vemurafenib 300 nM (about IC25), added 48 h after transfection, for 48 h; comparison arm got DMSO vehicle only
Measurement: 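Ratios to non-targeting siRNA for cell gain, counted as DAPI nuclei after minus before drug and averaged over two replicates, and for absorbance-read medium lactate per cell; both binned into fold-change classes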
Direction: cell gain with vemurafenib: higher = more cell gain than with non-targeting siRNA; lactate per cell with vemurafenib: higher = more lactate made per cell
Call rule: 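Enhancement is called by pairing each knock-down's vehicle-arm and drug-arm fold-change classes for viability or glycolysis; which class combinations qualify is not given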
Calls: active = enhances vemurafenib effect; inactive = no enhancement seen

target	cell gain with vemurafenib	lactate per cell with vemurafenib	Outcome
LAMC2 (laminin subunit gamma 2)	0.14	2.04	inactive
TRAT1 (T cell receptor associated transmembrane adaptor 1)	0.22	0.79	inactive
NT5C1A (5'-nucleotidase, cytosolic IA)	0.13	0.8	inactive
OR7G1 (olfactory receptor family 7 subfamily G member 1)	0.86	0.26	inactive
PIEZO1	0.65	0.85	inactive
HDAC10 (histone deacetylase 10)	0.55	1.4	inactive
PAPSS2 (3'-phosphoadenosine 5'-phosphosulfate synthase 2)	0.55	0.36	active
TAF1A	0.75	1.06	inactive
NUDT8 (nudix hydrolase 8)	0.4	0.42	inactive
TPRG1 (tumor protein p63 regulated 1)	0.51	1.18	inactive
UGT1A7 (UDP glucuronosyltransferase family 1 member A7)	0.02	0.94	inactive
MARCHF2 (membrane associated ring-CH-type finger 2)	1.12	0.81	inactive
NEMF (nuclear export mediator factor)	0.29	0.74	inactive
XIAP (X-linked inhibitor of apoptosis)	0.85	0.64	active
CCDC92 (coiled-coil domain containing 92)	0.62	0.88	inactive
FAAH2 (fatty acid amide hydrolase 2)	0.65	1.36	inactive
KRTAP5-6 (keratin associated protein 5-6)	0.02	0.58	inactive
NFKBIZ (NFKB inhibitor zeta)	0.54	1.3	inactive
ZKSCAN3 (zinc finger with KRAB and SCAN domains 3)	0.78	0.68	inactive
HDGFL3 (HDGF like 3)	0.86	0.84	inactive
EFNB2 (ephrin B2)	0.21	1.14	inactive
KBTBD2 (kelch repeat and BTB domain containing 2)	0.36	1.29	inactive
GABRQ (gamma-aminobutyric acid type A receptor subunit theta)	0.26	0.85	inactive
ARF6 (ARF GTPase 6)	0.54	0.38	inactive
MRGPRG (MAS related GPR family member G)	0.52	1.34	inactive
P2RX1 (purinergic receptor P2X 1)	0.36	0.72	inactive
CAPRIN2 (caprin family member 2)	0.35	1.12	inactive
GRHPR (glyoxylate and hydroxypyruvate reductase)	0.48	1.46	inactive
HELB (DNA helicase B)	1.32	0.8	inactive
RAB3GAP2 (RAB3 GTPase activating non-catalytic protein subunit 2)	0.8	0.52	inactive
TOP1 (DNA topoisomerase I)	0.69	1.27	inactive
FAM47A (family with sequence similarity 47 member A)	0.62	1.01	inactive
BABAM2 (BRISC and BRCA1 A complex member 2)	0.11	0.96	inactive
LSMEM1 (leucine rich single-pass membrane protein 1)	0.61	0.38	inactive
PSMB6 (proteasome 20S subunit beta 6)	-0.1	2.54	inactive
CDC40 (cell division cycle 40)	0.41	1.05	inactive
ALOX12 (arachidonate 12-lipoxygenase, 12S type)	1.16	1.02	inactive
ABCC4 (ATP binding cassette subfamily C member 4 (PEL blood group))	0.54	1.67	inactive
AP1S1 (adaptor related protein complex 1 subunit sigma 1)	0.69	1.27	inactive
M6PR (mannose-6-phosphate receptor, cation dependent)	1.06	0.82	inactive
DCAF8 (DDB1 and CUL4 associated factor 8)	0.72	0.83	inactive
CNNM2	0.66	1.44	inactive
SLC60A2	0.62	1.39	inactive
OR2T6 (olfactory receptor family 2 subfamily T member 6)	0.81	0.76	inactive
ANKRD30A (ankyrin repeat domain 30A)	-0.08	0.84	inactive
SLC45A4	0.92	0.74	inactive
CTNNA3 (catenin alpha 3)	0.96	0.99	inactive
PRB3 (proline rich protein BstNI subfamily 3)	0.48	1.16	inactive
ALOX15B (arachidonate 15-lipoxygenase type B)	0.11	1.88	inactive
DCK (deoxycytidine kinase)	0.17	1.42	inactive
CABS1 (calcium binding protein, spermatid associated 1)	0.47	1.48	inactive
NEURL2 (neuralized E3 ubiquitin protein ligase 2)	0.07	0.75	inactive
CFAP70 (cilia and flagella associated protein 70)	0.64	1.66	inactive
RASL12 (RAS like family 12)	0.6	0.82	inactive
PLA2G1B (phospholipase A2 group IB)	0.44	0.95	inactive
RPS4Y1 (ribosomal protein S4 Y-linked 1)	0.51	0.51	inactive
CHRNB2 (cholinergic receptor nicotinic beta 2 subunit)	0.5	0.98	inactive
SH3RF3 (SH3 domain containing ring finger 3)	0.61	0.54	inactive
LY6H (lymphocyte antigen 6 family member H)	0.72	0.73	inactive
SETD1A (SET domain containing 1A, histone lysine methyltransferase)	0.92	0.68	inactive
CGB1 (chorionic gonadotropin subunit beta 1)	0.5	1.61	inactive
EXOC1 (exocyst complex component 1)	0.38	1.33	inactive
PBX3 (PBX homeobox 3)	0.82	1.01	inactive
SLC16A1	0.64	1.25	inactive
HSPB7 (heat shock protein family B (small) member 7)	0.91	1.08	inactive
DCTPP1 (dCTP pyrophosphatase 1)	0.51	0.94	inactive

Taken from above.
Result of PBX3 (PBX homeobox 3) in “Outcome”: inactive
Result for GRHPR (glyoxylate and hydroxypyruvate reductase) in “cell gain with vemurafenib”: 0.48
NFKBIZ (NFKB inhibitor zeta), Outcome: inactive
Result for DCK (deoxycytidine kinase) under “cell gain with vemurafenib”: 0.17
For “cell gain with vemurafenib”, CGB1 (chorionic gonadotropin subunit beta 1) has 0.5
Under “cell gain with vemurafenib”, GABRQ (gamma-aminobutyric acid type A receptor subunit theta) is entered as 0.26

The results go on.
target	cell gain with vemurafenib	lactate per cell with vemurafenib	Outcome
ZBTB11 (zinc finger and BTB domain containing 11)	0.92	0.85	inactive
CDX4 (caudal type homeobox 4)	0.92	0.76	inactive
AK3 (adenylate kinase 3)	0.65	1.49	inactive
ALOX5AP (arachidonate 5-lipoxygenase activating protein)	1.19	0.62	inactive
IFNGR2 (interferon gamma receptor 2)	0.84	1.16	inactive
MYCBP (MYC binding protein)	0.45	0.94	inactive
SLC25A36	0.2	1.91	inactive
PDE6B (phosphodiesterase 6B)	0.68	0.86	inactive
CTAGE15 (CTAGE family member 15)	0.86	1.39	inactive
SRPRA (SRP receptor subunit alpha)	0.25	1.29	inactive
GTF3C4 (general transcription factor IIIC subunit 4)	0.82	1.1	inactive
CLASRP (CLK4 associating serine/arginine rich protein)	0.04	0.34	active
LAMTOR2 (late endosomal/lysosomal adaptor, MAPK and MTOR activator 2)	0.02	1.36	inactive
CTXN1 (cortexin 1)	0.61	0.49	inactive
TMEM95 (transmembrane protein 95)	0.7	0.6	inactive
KRTAP19-5 (keratin associated protein 19-5)	0.84	1.28	inactive
CD1E (CD1e molecule)	0.77	0.83	inactive
SAXO2 (stabilizer of axonemal microtubules 2)	0.77	1.09	inactive
BDH1 (3-hydroxybutyrate dehydrogenase 1)	1	0.5	inactive
DCAF12L1 (DDB1 and CUL4 associated factor 12 like 1)	0.44	0.54	inactive
ITGB7 (integrin subunit beta 7)	0.49	0.69	inactive
CD207 (CD207 molecule)	-0.01	-0.27	active
H3C4 (H3 clustered histone 4)	0.32	2.25	inactive
MYBBP1A (MYB binding protein 1a)	0.71	0.81	inactive
NUP88 (nucleoporin 88)	0.52	1.17	inactive
IMP3 (IMP U3 small nucleolar ribonucleoprotein 3)	0.38	2.67	inactive
ABCB6 (ATP binding cassette subfamily B member 6 (LAN blood group))	0.46	1.49	inactive
STRADA (STE20 related adaptor alpha)	0.18	1.56	inactive
CMPK2 (cytidine/uridine monophosphate kinase 2)	0.5	1.09	inactive
PAK6-AS1 (PAK6 antisense RNA 1)	0.41	1.27	inactive
TOE1 (target of EGR1, exonuclease)	0.27	2.38	inactive
EML5 (EMAP like 5)	0.57	1.13	inactive
XRCC3 (X-ray repair cross complementing 3)	0.67	0.79	inactive
RASSF4 (Ras association domain family member 4)	0.04	1.75	inactive
RBM39 (RNA binding motif protein 39)	0.71	1.33	inactive
REG4 (regenerating family member 4)	0.7	1.21	inactive
LRRC3B (leucine rich repeat containing 3B)	1	0.64	inactive
CDK19 (cyclin dependent kinase 19)	0.57	0.7	inactive
PGCKA1 (PDCD10 and GCKIII kinases associated 1)	0.29	2	inactive
TPRN (taperin)	0.38	0.47	inactive
DNAI4 (dynein axonemal intermediate chain 4)	0.52	0.73	inactive
